Reference: PubChem BioAssay AID720505 (Drosophila RNAi Screening Center, 2013)
Screen: 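Genes needed for store-operated calcium entry in fly cells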 (primary screen). Cell system: Drosophila S2R+ cells. Reagents: long dsRNA against Drosophila genes. Conditions: thapsigargin (2 µM) in calcium-free buffer to empty internal stores, then 2 mM calcium added back. Measured: 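Fluo-4 signal in 384-well plates read on a FLIPR after thapsigargin (2 µM, calcium-free) store depletion and 2 mM calcium add-back; unnormalised mean endpoint per well; screen run twice, selected wells retested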. Scale: calcium signal and retest calcium signal: higher = more calcium entry after store depletion. Rule for the call: 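About 1500 genes called as lowering calcium entry, by varying amounts, judged against per-plate control wells with STIM1 as positive and Rho1 as negative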. Calls: active = called as lowering calcium entry; inactive = not called.
In all, the deposit lists about 20,000 reagents; below is a random part of those with a known target gene and a result. Over the whole deposit, about 2,100 (10%) are marked active. 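Raw plate signals without normalisation; calls rest on control-based scores that were not deposited; replicate 2 separates called from uncalled poorly.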 The numbers tell different reagents against one gene apart. A plus sign joins genes that one reagent is predicted to hit. Not given: the amount of reagent, the time to read-out.

Target gene | reagent | calcium signal, replicate 1 | calcium signal, replicate 2 | retest calcium signal, replicate 1 | retest calcium signal, replicate 2 | call
CG15756 | 1 | 94.1 | 78.8 | – | – | inactive
Lk6 (Lk6 kinase) | 1 | 157 | 136 | – | – | inactive
CG4480 | 1 | 101 | 133 | – | – | inactive
Tk (Tachykinin) | 1 | 69.3 | 200 | 7471 | 185 | active
Tk (Tachykinin) | 2 | 104 | 106 | – | – | inactive
spg (sponge) | 1 | 149 | 116 | – | – | inactive
spg (sponge) | 2 | 150 | 155 | – | – | inactive
CG4363 | 1 | 175 | 117 | – | – | inactive
7SLRNA:CR42652 + 7SLRNA:CR32864 | 1 | 69.2 | 109 | – | – | inactive
x16 (x16 splicing factor) | 1 | 69.2 | 135 | – | – | inactive
x16 (x16 splicing factor) | 2 | 97.3 | 155 | – | – | inactive
CG31437 | 1 | 5772 | 151 | – | – | inactive
CG13096 | 1 | 188 | 123 | – | – | inactive
qua (quail) | 1 | 117 | 98.8 | – | – | inactive
Obp73a (Odorant-binding protein 73a) | 1 | 95.1 | 116 | – | – | inactive
CG32111 (retired record) | 1 | – | – | – | – | active
opm (opossum) | 1 | 153 | 84.3 | – | – | inactive
opm (opossum) | 2 | 91.4 | 139 | – | – | inactive
CASK | 1 | 197 | 198 | 8515 | 155 | inactive
CASK | 2 | 148 | 134 | – | – | inactive
CASK | 3 | 252 | 202 | – | – | inactive
CASK | 4 | 79.1 | 182 | – | – | inactive
Tmem63 (Transmembrane protein 63) | 1 | 118 | 75.5 | – | – | inactive
CG3598 | 1 | 129 | 142 | – | – | inactive
CG8281 | 1 | 87.8 | 64.9 | – | – | inactive
gb (genderblind) | 1 | 117 | 126 | – | – | inactive
MESK2 (Misexpression suppressor of KSR 2) | 1 | 158 | 121 | – | – | inactive
Dr (Drop) | 1 | 56.3 | 89.7 | 138 | 7806 | active
Dr (Drop) | 2 | 52.1 | 85.2 | – | – | active
gsb (gooseberry) | 1 | 57.6 | 126 | – | – | active
mthl7 (methuselah-like 7) | 1 | 98.2 | 86.9 | – | – | inactive

The list goes on; the last 4 above are carried over.
Target gene | reagent | calcium signal, replicate 1 | calcium signal, replicate 2 | retest calcium signal, replicate 1 | retest calcium signal, replicate 2 | call
Dr (Drop) | 1 | 56.3 | 89.7 | 138 | 7806 | active
Dr (Drop) | 2 | 52.1 | 85.2 | – | – | active
gsb (gooseberry) | 1 | 57.6 | 126 | – | – | active
mthl7 (methuselah-like 7) | 1 | 98.2 | 86.9 | – | – | inactive
orb2 + CG43783 | 1 | 104 | 180 | – | – | inactive
orb2 + CG43783 | 2 | 97.2 | 76.8 | – | – | inactive
orb2 + CG43783 | 3 | 106 | 127 | – | – | inactive
polybromo | 1 | 196 | 228 | – | – | inactive
beat-IIIb (beaten path IIIb) | 1 | 113 | 127 | – | – | inactive
S-Lap4 (Sperm-Leucylaminopeptidase 4) | 1 | 94.5 | 115 | – | – | inactive
Tgt (tRNA-guanine transglycosylase) | 1 | 137 | 296 | – | – | inactive
Cdk9 (Cyclin-dependent kinase 9) | 1 | 62.2 | 170 | – | – | active
asRNA:CR31144 + RpL3 | 1 | 64.6 | 71.8 | – | – | active
CG31706 | 1 | 99.8 | 165 | – | – | inactive
CG10164 | 1 | 105 | 149 | – | – | inactive
zormin | 1 | 93.8 | 108 | – | – | inactive
zormin | 2 | 57.6 | 69.9 | – | – | active
zormin | 3 | 78.6 | 103 | – | – | inactive
zormin | 4 | 88.8 | 108 | – | – | inactive
zormin | 5 | 146 | 110 | – | – | inactive
zormin | 6 | 150 | 196 | – | – | inactive
mTor (mechanistic Target of rapamycin) | 1 | 106 | 95.5 | – | – | inactive
CG14989 | 1 | 140 | 88.3 | – | – | inactive
Ih (I[[h]] channel) | 1 | 92.6 | 107 | – | – | inactive
Ih (I[[h]] channel) | 2 | 202 | 154 | – | – | inactive
Ih (I[[h]] channel) | 3 | 112 | 184 | – | – | inactive
mmm (missing minor mitochondria) | 1 | 95.6 | 73.2 | – | – | inactive
hig (hikaru genki) | 1 | 119 | 108 | 78.1 | 119 | inactive
hig (hikaru genki) | 2 | 98.1 | 99 | – | – | inactive
hig (hikaru genki) | 3 | 123 | 164 | – | – | inactive
